No constants are given. Whether binding was seen depends on the method and setting. In cells and extracts the contact can be indirect. These calls come from enrichment with a bait or labelling near it, and not all partners need be listed. For part of these data: A no says only that the protein was not detected with the bait.
Experiments:
[1] = molecular target: 2-Oxoacid:ferredoxin oxidoreductase, γ1 subunit (Thermococcus kodakarensis) (UniProt Q5JE61); experiment: affinity purification with mass spectrometry; as a1, only the purifications from cells grown with elemental sulfur (+S˚)
[2] = molecular target: 2-Oxoacid:ferredoxin oxidoreductase, γ1 subunit (Thermococcus kodakarensis) (UniProt Q5JE61); experiment: affinity purification with mass spectrometry; HA- and His6-tagged bait made from its native locus, captured from clarified T. kodakarensis lysate on a Ni2+-charged chelating column (buffer A: 10 mM Tris HCl pH 8.0, 500 mM NaCl, 10% glycerol), eluted with an imidazole gradient; pooled fractions identified by MuDPIT LC-MS/MS and compared with the parental strain TS559 (P < 0.05, log2 fold change ≥ 2); cells grown at 85°C with (+S˚) or without (–S˚) elemental sulfur
[3] = molecular target: T1, 2-Oxoisovalerate-ferredoxin oxidoreductase, β subunit (Thermococcus kodakarensis) (UniProt Q5JIJ9); experiment: as above
T1 sequence: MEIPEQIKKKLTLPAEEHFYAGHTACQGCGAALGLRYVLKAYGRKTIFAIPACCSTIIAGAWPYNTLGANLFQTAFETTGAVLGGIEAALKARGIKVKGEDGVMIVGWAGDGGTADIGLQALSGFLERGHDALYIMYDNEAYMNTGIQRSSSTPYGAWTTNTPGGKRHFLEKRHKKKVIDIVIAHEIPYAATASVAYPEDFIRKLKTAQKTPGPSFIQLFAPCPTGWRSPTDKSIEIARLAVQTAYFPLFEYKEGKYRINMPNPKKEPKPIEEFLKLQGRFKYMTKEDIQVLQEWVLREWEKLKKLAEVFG

The chains behind the UniProt entries cited, without tags or fusion partners. Where a name states a change or a piece, a line headed by the entry shows the natural chain unless it says otherwise.
UniProt Q5JE61: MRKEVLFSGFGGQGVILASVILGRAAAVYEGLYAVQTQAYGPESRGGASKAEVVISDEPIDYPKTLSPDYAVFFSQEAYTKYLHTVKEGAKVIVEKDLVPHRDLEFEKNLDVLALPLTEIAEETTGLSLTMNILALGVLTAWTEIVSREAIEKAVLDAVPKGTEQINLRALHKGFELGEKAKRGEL
UniProt Q5JE58: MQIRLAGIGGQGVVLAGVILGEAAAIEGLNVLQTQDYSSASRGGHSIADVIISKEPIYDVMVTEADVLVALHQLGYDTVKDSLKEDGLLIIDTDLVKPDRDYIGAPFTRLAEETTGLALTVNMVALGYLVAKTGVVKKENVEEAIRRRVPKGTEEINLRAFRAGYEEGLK
UniProt Q5JIK0: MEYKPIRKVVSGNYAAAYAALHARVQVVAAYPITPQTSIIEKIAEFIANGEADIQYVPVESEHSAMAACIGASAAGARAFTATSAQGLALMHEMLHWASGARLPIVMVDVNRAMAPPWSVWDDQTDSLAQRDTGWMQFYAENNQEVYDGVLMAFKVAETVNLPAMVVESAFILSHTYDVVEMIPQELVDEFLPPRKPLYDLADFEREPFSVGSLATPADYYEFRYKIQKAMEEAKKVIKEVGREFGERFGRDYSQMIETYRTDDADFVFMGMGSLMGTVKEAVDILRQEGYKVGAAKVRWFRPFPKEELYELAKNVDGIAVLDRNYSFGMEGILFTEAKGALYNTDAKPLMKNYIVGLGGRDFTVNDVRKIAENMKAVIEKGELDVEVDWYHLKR
UniProt Q5JE28: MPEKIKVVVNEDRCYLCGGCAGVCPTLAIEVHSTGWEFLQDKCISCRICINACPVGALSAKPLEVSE

[4] = molecular target: T2, 2-Oxoisovalerate-ferredoxin oxidoreductase, γ subunit (Thermococcus kodakarensis) (UniProt Q5JIK2); experiment: as above
T2 sequence: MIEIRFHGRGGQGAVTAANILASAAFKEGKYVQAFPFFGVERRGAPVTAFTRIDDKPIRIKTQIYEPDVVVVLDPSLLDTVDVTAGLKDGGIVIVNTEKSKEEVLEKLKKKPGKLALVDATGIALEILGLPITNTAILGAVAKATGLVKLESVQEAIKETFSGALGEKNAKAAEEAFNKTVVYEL

[5] = molecular target: T3, 2-Oxoisovalerate-ferredoxin oxidoreductase, δ subunit (Thermococcus kodakarensis) (UniProt Q5JIK1); experiment: as above
T3 sequence: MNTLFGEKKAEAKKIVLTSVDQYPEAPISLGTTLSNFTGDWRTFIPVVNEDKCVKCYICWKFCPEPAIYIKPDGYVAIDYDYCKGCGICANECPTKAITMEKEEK

[6] = molecular target: T4, Geranylgeranyl reductase (Thermococcus kodakarensis) (UniProt Q5JE27); experiment: as above
T4 sequence: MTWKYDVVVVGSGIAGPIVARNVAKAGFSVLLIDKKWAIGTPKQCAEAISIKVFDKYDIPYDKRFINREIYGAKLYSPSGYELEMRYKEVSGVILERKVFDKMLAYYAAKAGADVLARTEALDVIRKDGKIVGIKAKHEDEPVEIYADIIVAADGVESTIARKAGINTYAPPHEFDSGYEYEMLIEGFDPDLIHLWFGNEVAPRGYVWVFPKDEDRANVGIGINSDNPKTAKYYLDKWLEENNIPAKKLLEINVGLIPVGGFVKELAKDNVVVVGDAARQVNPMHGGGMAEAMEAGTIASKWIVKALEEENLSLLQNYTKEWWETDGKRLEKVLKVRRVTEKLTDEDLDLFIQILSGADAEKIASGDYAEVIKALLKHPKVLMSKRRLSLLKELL

With OGORγ2 (TK1126) (from UniProt Q5JE58) the binding [1] was “no binding (only cells grown with S˚)” and the binding [2] was “binds”.

In the case of “2-Oxoisovalerate-ferredoxin oxidoreductase, α subunit (from UniProt Q5JIK0)”, the binding [3] is reported as “binds”, the binding [4] is reported as “binds” and the binding [5] is reported as “binds”.

Fd2 (TK1087) (from UniProt Q5JE28) was tested, and the binding [6] was “binds”.
